Results from publication PMC2955532.
No constants are given. Whether binding was seen depends on the method and setting. Binding seen in cells or lysates may run through a third protein. For some assays here: A result given as binding can be weak or reduced; the word gives no strength. Each block holds one molecule with its values, some of them ahead of it.

By UniProt entry, the sequences of proteins in these tests, tags left out. Where a name states a change or a piece, a line headed by the entry shows the natural chain unless it says otherwise.
UniProt P35613: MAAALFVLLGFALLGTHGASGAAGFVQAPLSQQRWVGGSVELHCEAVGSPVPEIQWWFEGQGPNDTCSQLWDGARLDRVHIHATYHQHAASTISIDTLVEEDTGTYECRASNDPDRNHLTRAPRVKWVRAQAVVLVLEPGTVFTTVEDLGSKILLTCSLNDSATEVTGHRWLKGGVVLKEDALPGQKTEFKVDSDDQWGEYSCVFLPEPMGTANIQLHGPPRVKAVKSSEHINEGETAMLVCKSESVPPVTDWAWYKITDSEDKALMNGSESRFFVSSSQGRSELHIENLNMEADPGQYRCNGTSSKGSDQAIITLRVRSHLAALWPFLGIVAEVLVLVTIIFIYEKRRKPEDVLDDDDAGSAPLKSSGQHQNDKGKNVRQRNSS

Experiments:
[1] = molecular target: CD147 (human (endogenous in primary EEC)) (UniProt P35613); assay: co-IP; confluent primary EEC monolayers lysed in Tris-buffered saline with 1% Brij 96, 1 mM CaCl2, 1 mM MgCl2 and protease inhibitors; 5 µg antibody coupled to protein-G-Sepharose; six washes with lysis buffer; non-reducing SDS-PAGE and Western blot; non-immune Ig as negative control
[2] = molecular target: CD147 (human (endogenous in primary EEC)), P35613; assay: as above; conditions: remark: other sources report otherwise

binding [1]: binds weakly
Molecule: CD98 heavy chain (from UniProt P08195 1-529)

binding [2]: no binding
B1: tetraspanin CD9, P21926 1-228 (protein)
chain: MPVKGGTKCIKYLLFGFNFIFWLAGIAVLAIGLWLRFDSQTKSIFEQETNNNNSSFYTGVYILIGAGALMMLVGFLGCCGAVQESQCMLGLFFGFLLVIFAIEIAAAIWGYSHKDEVIKEVQEFYKDTYNKLKTKDEPQRETLKAIHYALNCCGLAGGVEQFISDICPKKDVLETFTVKSCPDAIKEVFDNKFHIIGAVGIGIAVVMIFGMIFSMILCCAIRRNREMV
